The list shows a part of the results. Shown are side measurements of this screen, not its main read-out; they come without a call. Most of these compounds were active or inconclusive in the main read-out, so they are no random draw. The note in brackets gives the kind of curve behind each potency; many fits are weak.
Assay: qHTS Assay for Lipid Storage Modulators in Drosophila S3 Cells;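 for cell number change: cells counted by Cell Tracker Red CMTPX staining in the red channel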
Conditions: BODIPY lipid droplet fluorescence, 18-24 h; for cell number change: measured here: cell count max response, cells fed with added oleic acid
Procedure, shortened: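 Drosophila S3 cells loaded with oleic acid (400 uM, as added) and compounds at several concentrations; lipid droplets imaged by 488-nm laser-scanning cytometry, 500–530 nm intensity and object ratio to cell channel. Percent activity normalized to 20 uM Triacsin C.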

[1] = measured here: cell number channel AC50, cells fed with added oleic acid
[2] = measured here: lipid fluorescence (Fed channel) AC50, cells fed with added oleic acid

| SMILES | cell number change | AC50 [1] | AC50 [2] |
| --- | --- | --- | --- |
| O=C(c1ccncc1)N1N=C(c2ccc(Cl)cc2)CC1c1ccccc1O (stereo not given) | 0.427% | 6.51 µM [rising, single point] | 16.4 µM [rising, partial curve] |
| CCOc1ccc(Nc2nc(Cc3nnc(SCC(=O)c4ccc(C)cc4)o3)cs2)cc1 | – | 0.92 µM [rising, full curve] | 6.51 µM [rising, single point] |
| C=CCn1c(SCc2ccc(F)cc2)nnc1-c1sc2nc(C)cc(C)c2c1N | – | – | 0.82 µM [rising, full curve] |
| CNC(=O)C(C)Sc1ccc(S(=O)(=O)N2CCOCC2)cn1 (stereo not given) | -13.3% | – | 29.1 µM [falling, single point] |
| CCOc1ccc(C(=O)NN2C(=S)NC(C)(C)C=C2C)cc1 | -35.2% | – | 6.51 µM [rising, single point] |
| Cc1ccc(CN2CC34C=CC(O3)C(C(=O)NCc3ccco3)C4C2=O)cc1 (stereo not given) | 44.8% | 29.1 µM [rising, single point] | – |
| CC1CN(CCCSc2ccc(Cl)cc2)CC(C)O1 (stereo not given) | 5.58% | – | – |
| CCC1CCCCN1S(=O)(=O)c1ccc(NC(=O)C2CCN(C(=O)c3ccco3)CC2)cc1 (stereo not given) | 5.13% | – | – |
| CCN1/C(=C/c2ccc3ccc(C)cc3[n+]2CC)Sc2ccccc21 | -43.6% | 29.1 µM [falling, single point] | 3.26 µM [falling, partial curve] |
| O=C(CCCO)CCCCCCCCC[C@H]1N[C@H](CO)[C@@H](O)[C@@H]1O | -20% | – | 0.82 µM [falling, full curve] |
| CCc1nc(C)cn1S(=O)(=O)c1cc(Br)ccc1OC | -56.6% | 18.4 µM [falling, partial curve] | 20.6 µM [falling, partial curve] |
| Cc1sc2ncn(CC(=O)NCCCC(=O)N3CCN(c4ccccc4F)CC3)c(=O)c2c1C | 13.8% | – | – |
| Cc1ccc(/C=N/NC(=O)C[n+]2ccccc2)o1 | -45.8% | – | 0.116 µM [falling, full curve, poor fit] |
| COc1ccccc1NC(=O)c1ccc2c(c1)C(=O)N(Cc1ccco1)C2=O | 29.5% | 0.461 µM [rising, full curve, poor fit] | – |
| CCOC(=O)c1c(C)nn(-c2ccc(NC(=O)c3cccs3)cc2)c1C | -36.2% | 1.64 µM [falling, partial curve] | 1.64 µM [falling, full curve] |
| O=C1Cn2c(nc3ccccc32)N1c1ccccc1F | -17.3% | – | 0.82 µM [falling, full curve] |
| Cc1cc(-n2c(=O)c(C#N)cc3c(=O)n4cccc(C)c4nc32)no1 | 14.3% | – | 3.26 µM [rising, partial curve] |
| Cc1ccc([N+](=O)[O-])cc1NC(=O)c1ccc2c(c1)OCO2 | -0.857% | – | – |
| COc1ccc(-n2c(SCC(=O)Nc3ccc(C)cc3)nc(O)c(Cc3ccccc3)c2=O)cc1 | -13% | – | – |
| Cc1cccc(NC(=O)C2CCN(c3nccc(C)n3)CC2)c1 | -10.8% | – | 0.116 µM [rising, full curve, poor fit] |

| SMILES | cell number change | AC50 [1] | AC50 [2] |
| --- | --- | --- | --- |
| N/C(Cc1cccs1)=N\OC(=O)COc1ccccc1 | 1.3% | – | 5.17 µM [rising, full curve, poor fit] |
| CCc1cc(C(=O)Cc2cnn(-c3ccccc3)c2)c(O)cc1O | -67.9% | 20.6 µM [falling, partial curve] | 8.2 µM [falling, partial curve, poor fit] |
| COc1ccc(/C(C)=N/NC(=O)c2nnn(-c3nonc3N)c2CN(C)c2ccccc2)cc1 | 28.6% | – | 0.058 µM [rising, full curve, poor fit] |
| O=C(NC1CCCCC1)C1CCC(=O)N(Cc2cccc(C(F)(F)F)c2)C1 (stereo not given) | 37.1% | – | 6.31 µM [rising, single point] |
| C/C(=N/NC(=O)CSc1ccccn1)c1ccc([N+](=O)[O-])cc1 | – | 1.3 µM [rising, partial curve] | 0.13 µM [rising, partial curve, poor fit] |
| CC(C)(C)C(=O)N1CCN(c2ccc(NC(=O)c3ccc4c(c3)OCCO4)cc2)CC1 | – | – | 6.51 µM [falling, single point] |
| CCN(CC)S(=O)(=O)c1ccc(OC)c(NC(=O)CCS(=O)(=O)Cc2ccccc2)c1 | 14.2% | – | 0.461 µM [rising, full curve, poor fit] |
| CCCn1c(=NC(=O)c2ccc3c(c2)OCO3)c(C#N)cc2c(=O)n3cccc(C)c3nc21 | 19.9% | – | 0.103 µM [rising, full curve] |
| Cc1nc2c(C#N)cnn2c2c1CCNN2C | -57.8% | – | – |
| CCOC(=O)c1sc2nc(SCC#N)n(CCCN3CCCC3=O)c(=O)c2c1C | – | 5.8 µM [rising, single point] | 0.517 µM [rising, full curve] |
| CC(C)(C)c1ccc(C2(C)NC(=O)NC2=O)cc1 (stereo not given) | 15.8% | – | 29.1 µM [falling, single point] |
| O=Cc1cccc(Oc2ccc([N+](=O)[O-])cc2[N+](=O)[O-])c1 | -41.7% | – | 5.8 µM [falling, full curve] |
| CCc1nc(N2CCOCC2)c(C#N)c2c1COC(C)(C)C2 | -6.49% | – | 0.731 µM [rising, full curve, poor fit] |
| CCOC(=O)c1c(NC(=O)c2ccco2)sc(C(=O)N2CCCC2)c1C | 73.7% | 1.3 µM [rising, full curve] | 5.8 µM [rising, partial curve] |
| Cc1noc(/C=C/c2cccs2)c1S(=O)(=O)N1CCC(C(=O)NCCCN2CCC(C)CC2)CC1 | 0.856% | – | 0.82 µM [rising, single point] |
| COc1cc2[nH]c(=S)nc(NCc3ccc(Cl)cc3)c2cc1OC | – | – | 0.366 µM [falling, full curve] |
| Cc1ccc(NC2=NC(c3ccc(F)cc3)n3c(nc(C)cc3=O)N2)cc1 (stereo not given) | 17.4% | – | 14.6 µM [rising, single point] |
| O=C(CCCc1nc(-c2ccccc2Cl)no1)NC1CCCCC1 | -4.3% | – | – |
| O=C(NCc1ccccc1)c1ccccc1C(=O)c1ncc[nH]1 | 24.3% | 0.259 µM [rising, full curve, poor fit] | – |
| O=C(CCc1nnc(-c2ccccc2)o1)NCc1cc(F)ccc1F | 4.88% | – | 6.51 µM [falling, single point] |

| SMILES | cell number change | AC50 [1] | AC50 [2] |
| --- | --- | --- | --- |
| O=C(O)CS/C(=C\c1ccc(F)cc1)c1nc2ccccc2s1 | – | 0.259 µM [falling, full curve] | – |
| CN(c1ccccc1)S(=O)(=O)c1cccc(NC(=O)CC(C)(C)C)c1 | 17.6% | – | 6.51 µM [rising, single point] |
| CCOC(=O)c1c(-c2ccccc2)nnn1-c1nc(OC)nc(N2CCOCC2)n1 | 21.7% | – | 3.26 µM [rising, full curve] |
| O=C(Nc1nnc(COc2ccc(Cl)cc2)s1)c1ccco1 | 12.9% | – | – |
| COC(=O)NC(=S)Nc1ccc(Oc2ccc(Cl)cc2Cl)c(Cl)c1 | -38.9% | 25.9 µM [falling, partial curve, poor fit] | 18.4 µM [falling, partial curve] |
| CCCC(C(=O)NCC1CCCO1)N(Cc1ccccc1)C(=O)CNS(=O)(=O)c1ccccc1 (stereo not given) | 9.46% | – | 0.13 µM [falling, full curve, poor fit] |
| Cc1cc(C)c(NC(=O)CN(C)CC(=O)N(C)CC(=O)Nc2c(Cl)cccc2Cl)c(C)c1 | -7.79% | – | 0.13 µM [falling, full curve, poor fit] |
| CN1CCN(C(=S)NC(=O)c2ccc(Cl)cc2)CC1 | – | – | 6.51 µM [rising, single point] |
| O=C(CCSc1ccccc1)Nc1ccc(S(=O)(=O)N2CCOCC2)cc1 | -1.78% | – | 3.66 µM [rising, single point] |
| COc1cccc(NS(=O)(=O)c2csc(C(N)=O)c2)c1 | -9.15% | – | 23.1 µM [rising, single point] |
| CCC(=O)Nc1ccc2c(c1)N(C(C)=O)c1ccccc1CC2 | -11.5% | – | – |
| COc1cc(OC)cc(C(=O)Nc2nc(CC(=O)NCCc3ccccc3)cs2)c1 | -114% | 29.1 µM [falling, single point] | – |
| CC1CC(C)CN(C(=O)C(C)N(C)CC(=O)Nc2ccc(Cl)cc2)C1 (stereo not given) | -30.3% | 18.4 µM [falling, partial curve, poor fit] | 32.6 µM [falling, single point] |
| COc1ccccc1OCCn1c(=O)oc2ccc(C)cc21 | 38.7% | – | 16.4 µM [rising, partial curve, poor fit] |
| O=C(Nc1nccs1)c1ccc(Br)o1 | 25.2% | – | 25.9 µM [rising, single point] |
| O=C(COC(=O)/C=C/c1cccc(Cl)c1)Nc1ccccc1-c1ccccc1 | 30.7% | 8.2 µM [rising, single point] | – |
| CCN(CC)C(=O)C1CC(=O)N(c2ccc(F)c(Cl)c2)C1 (stereo not given) | -6.9% | – | 29.1 µM [rising, single point] |
| Cc1c(NC(=O)CSc2nnc(-c3cccc(Cl)c3)o2)c(=O)n(-c2ccccc2)n1C | 34% | 29.1 µM [rising, single point] | – |
| COc1ccccc1C(=O)Nc1nc2ccccc2s1 | -29.6% | – | 0.0731 µM [falling, full curve, poor fit] |
| CCCSc1cc(NCCOC(=O)CCC)c([N+](=O)[O-])c2nonc12 | -60.9% | 29.1 µM [falling, single point] | 29.1 µM [falling, single point] |

An excerpt from above, showing only AC50 [2] and cell number change:
SMILES	AC50 [2]	cell number change
CCc1nc(C)cn1S(=O)(=O)c1cc(Br)ccc1OC	20.6 µM [falling, partial curve]	-56.6%
COc1ccc(/C(C)=N/NC(=O)c2nnn(-c3nonc3N)c2CN(C)c2ccccc2)cc1	0.058 µM [rising, full curve, poor fit]	28.6%
CCN(CC)S(=O)(=O)c1ccc(OC)c(NC(=O)CCS(=O)(=O)Cc2ccccc2)c1	0.461 µM [rising, full curve, poor fit]	14.2%
O=Cc1cccc(Oc2ccc([N+](=O)[O-])cc2[N+](=O)[O-])c1	5.8 µM [falling, full curve]	-41.7%

— PubChem BioAssay AID2685 (National Center for Advancing Translational Sciences (NCATS), 2010)
